Results are given in words; binding and its absence hold for the method and conditions named. In cells and extracts the contact can be indirect.
Molecular target: C-terminally Flag-tagged mouse RNase L K391R (dimerization-defective) (mouse) (UniProt Q05921)
Assay: cross-linking; lysates of 293T cells overexpressing RNase L-Flag with or without L* (HEPES 20 mM pH 7.5, NaCl 100 mM, NP40 0.5%, EDTA 2 mM); 2-5A added (0.25 to 8 μM ATP equivalent), 10 min at 37°C; 5 mM DSS for 30 min; anti-Flag immunoblot of monomers, dimers and oligomers

Protein sequences, listed by entry. Tags and fused reporters are not part of them. Lines headed by an entry give the natural chain unless they say otherwise; changes in a name come on top.
UniProt Q05921: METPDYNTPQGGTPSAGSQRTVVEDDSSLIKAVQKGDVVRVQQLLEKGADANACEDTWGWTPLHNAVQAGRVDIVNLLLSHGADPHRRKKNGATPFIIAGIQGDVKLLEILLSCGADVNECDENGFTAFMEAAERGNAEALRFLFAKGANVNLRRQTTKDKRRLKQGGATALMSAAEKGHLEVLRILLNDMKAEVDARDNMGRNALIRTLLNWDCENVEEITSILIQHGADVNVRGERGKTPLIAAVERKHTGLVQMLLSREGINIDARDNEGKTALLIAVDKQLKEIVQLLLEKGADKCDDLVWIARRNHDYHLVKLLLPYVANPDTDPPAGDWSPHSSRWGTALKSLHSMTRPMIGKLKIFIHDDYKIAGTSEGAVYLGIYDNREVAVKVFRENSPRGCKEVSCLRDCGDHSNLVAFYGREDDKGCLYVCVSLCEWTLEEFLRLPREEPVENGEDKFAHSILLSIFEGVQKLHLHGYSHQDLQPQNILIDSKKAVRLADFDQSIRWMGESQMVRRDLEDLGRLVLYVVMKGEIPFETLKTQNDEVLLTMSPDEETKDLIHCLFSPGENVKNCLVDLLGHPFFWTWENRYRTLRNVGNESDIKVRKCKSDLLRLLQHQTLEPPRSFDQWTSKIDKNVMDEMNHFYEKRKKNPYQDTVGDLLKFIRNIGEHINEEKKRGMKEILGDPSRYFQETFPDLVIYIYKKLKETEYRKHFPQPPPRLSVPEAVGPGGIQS

C-terminally Flag-tagged mouse RNase L K391R (dimerization-defective) (from UniProt Q05921 1-735) (enzyme)
binding: no binding

Source: article PMC5927464 (2018)
